Screening data, single-dose tests

Amino acid sequences for entries named in this document (tags omitted).
UniProt P9WFT3, whole entry: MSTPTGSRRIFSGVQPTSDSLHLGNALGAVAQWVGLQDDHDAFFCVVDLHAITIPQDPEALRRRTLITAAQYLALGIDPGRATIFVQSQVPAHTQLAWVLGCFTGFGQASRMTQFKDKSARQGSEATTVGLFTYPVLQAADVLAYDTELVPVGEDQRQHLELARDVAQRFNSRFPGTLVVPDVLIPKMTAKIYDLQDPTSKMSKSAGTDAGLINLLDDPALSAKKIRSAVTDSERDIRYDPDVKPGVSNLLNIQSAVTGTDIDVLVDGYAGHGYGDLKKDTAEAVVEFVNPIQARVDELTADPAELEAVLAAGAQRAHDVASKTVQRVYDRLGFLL

From ChEMBL document CHEMBL3988442, “University of Dundee, Small-Polar-MMV Screening Library” (2021).

The filed quantity is “Percent Effect” (%). The record does not define 0% and 100%; most values in the screen are far below 50% and negative numbers occur (in some assays of this library far below -100). This is an unselected part of the compounds tested.

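Tryptophan-tRNA ligase, Mycobacterium tuberculosis (UniProt P9WFT3). Enzyme assay of tryptophanyl-tRNA synthetase; the read-out is not stated. Compounds at 10 µM. Direction is not recorded; retested compounds ran higher, which suggests that high means inhibition. About 65,000 compounds were tested under these conditions; 0.098% (about 64) showed 50% or more at least once.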

| Compound | percent effect |
|---|---|
| `CC(CNC(=O)N1CCN(c2cnccn2)CC1)Cc1cccs1` (centres unmarked) | -2.251% |
| `COc1cccc(Cn2c(C3CCNCC3)cc3cccnc32)c1` | -2.507% |
| `COCCN(C)CC(=O)N1C[C@@H](C)[C@](O)(C(C)C)C1` | 5.419% |
| `CSc1[nH]nc(NC(=O)c2ccccc2)c1C#N` | 2.395% |
| `COC(CNC(=O)CNC(=O)c1ccccc1)c1cccc(Cl)c1` (centres unmarked) | 3.701% |
| `Cc1cnn(CCNCC(=O)N2CCN(c3ccccc3)CC2)c1` | 13.85% |
| `CCCNC(=O)CCNC(=O)N1CCC(=Cc2ccccc2)CC1` | 24.76% |
| `CS(=O)(=O)N1CCCC12CCCN(C(=O)c1ccc3c(c1)OCO3)C2` (centres unmarked) | -2.464% |
| `CNC(=O)C1CCN(c2nccc(CCC(F)(F)F)n2)C1` (centres unmarked) | 0.2129% |
| `Cc1ccc(C(=O)Nc2cccc3c2C(=O)NC3)c(C)n1` | -4.095% |
| `CC(C)c1nc2n(n1)CC(NCc1ncc(C(C)(C)C)o1)CC2` (centres unmarked) | -4.237% |
| `CC(C)(C#N)c1ccccc1CN(CCO)Cc1ccsc1` | 6.476% |
| `CCN(Cc1nc(COC)no1)C(=O)CCn1c(C)cc2ccccc21` | 2.874% |
| `COc1cccc(CC2CCCN2CC(N)=O)c1` (centres unmarked) | -5.277% |
| `Cn1cc(S(=O)(=O)N2CCN(S(=O)(=O)c3ccc(Br)s3)CC2)cn1` | -0.432% |
| `O=C(c1ncccc1O)N1CCc2c(nc(-c3ccncc3)[nH]c2=O)C1` | 7.47% |
| `C[C@@H]1CN(C(=O)CCN2CCCC2)CC[C@@]1(O)C1CCC1` | -3.526% |
| `Cc1nn(C)c(Cl)c1C1CCCN1Cc1ccccn1` (centres unmarked) | -1.372% |
| `COc1ccc2nc(CNC(=O)c3cc(C(C)C)no3)[nH]c2c1` | -0.1903% |
| `CNC(=O)C1CCN(CC(=O)Nc2cc(C(C)C)no2)CC1` | 2.896% |
| `CCOC(=O)N1CCN(C(=O)Cc2c(C)nc(C)[nH]c2=O)CC1` | 0.8567% |
| `O=C(NCc1cccnc1)NCC(O)c1ccccc1C(F)(F)F` (centres unmarked) | 1.358% |
| `CC(=O)N1C[C@@H](F)[C@@H](OCc2nc3cc(C)c(C)cc3[nH]2)C1` | -1.745% |
| `O=C(O)c1ccn(-c2ccccc2NC(=O)c2ccccc2Cl)n1` | 2.234% |
| `CCn1cc2c(n1)C(COC)CN(C(=O)c1ccccn1)C2` (centres unmarked) | 0.5231% |
| `Cn1ncc2c(=O)[nH]c(N3CCN(C(=O)c4ccsc4)CC3)nc21` | 0.5477% |
| `CCOc1ccc(N(C)Cc2nnc(C3CC3)o2)cc1` | 1.3% |
| `Cc1cc(SC(C)(C)C)ccc1NCC(=O)NC(N)=O` | -10.78% |
| `CC(C)COc1cncc(NCC(O)c2ccco2)n1` (centres unmarked) | 6.824% |
| `Cc1ccsc1[C@@H]1CCN(C(=O)Cn2cc3ccccc3n2)C[C@H]1O` | -3.133% |
| `Cc1cc(=O)[nH]c(=O)n1-c1cccc(Cl)c1Cl` | 2.333% |
| `O=C(c1ccccc1)N1CCO[C@@H]2CN(c3cnccn3)C[C@@H]2C1` | 0.6783% |
| `O=S(=O)(c1ccc(F)c(F)c1)N1CCCC(c2nccs2)C1` (centres unmarked) | -1.913% |
| `CC(=O)N1CCC(NC(=O)N2CCN(c3cnccn3)CC2)CC1` | -3.011% |
| `CN1C[C@@H]2CC[C@H](CC1=O)N2C(=O)c1ccc(-c2ccccc2)[nH]c1=O` | -3.946% |
| `COc1cc2[nH]c(C(=O)O)cc2c(OC)c1C` | -1.447% |
| `CCc1noc(C)c1C(=O)N(C)Cc1ncc(C)c(OC)c1C` | 1.798% |
| `Cc1nc(N2CCOc3ccc(CO)cc3C2)c2nc(C)oc2n1` | -0.2742% |
| `CCNC(c1ccc(C(C)C)cc1)c1cccnc1` (centres unmarked) | 0.04733% |
| `Cn1nc(C(C)(C)C)cc1NC(=O)CSc1nnc[nH]1` | -3.086% |
| `CCc1cc(=O)n(CC(=O)N2CCCC2)c(-c2cccc(F)c2)n1` | -4.456% |
| `COc1cccc(CNc2c(O)c(=O)c2=O)c1` | 0.06817% |
| `CCOc1ccc(C2CC(=O)NCc3nc(N)sc32)cc1CO` (centres unmarked) | 2.832% |
| `CSc1ccc(C(C)NC(=O)c2cc(C)on2)cc1` (centres unmarked) | -3.293% |
| `Cc1cc2nc(CO[C@H]3CN(CC4CC4)C[C@H]3F)[nH]c2cc1C` | -5.111% |
| `NC(=O)C1(Cc2ccccc2-c2cncnc2)CCCNC1` (centres unmarked) | -2.154% |
| `Cn1cc(CN2CCc3ncn(C)c3C2COCc2cccnc2)cn1` (centres unmarked) | -2.323% |
| `CN(Cc1cn2c(n1)CN(c1ncc(F)cn1)CC2)Cc1ccco1` | 4.934% |
| `CCN(CC)C(=O)CCNc1cncc(-n2nc(C)cc2C)n1` | 0.5029% |
| `COc1ccc(CN(C)C(=O)NCc2c(C)cc(C)[nH]c2=O)cc1` | 1.657% |
| `CNS(=O)(=O)c1ccc(CNC(=O)N2CCOC(C)C2)cc1` (centres unmarked) | -0.1899% |
| `Cc1noc(C)c1CC(=O)NCC1(O)CCCN(c2ccccn2)C1` (centres unmarked) | 24.17% |
| `CS(=O)(=O)c1ccc(CNC(=O)N2CCC(C(N)=O)CC2)cc1` | -4.241% |
| `CC(C)Cc1noc(CN2CCN(CCO)CC2)n1` | -0.6289% |
| `Cc1nn(C)c(C)c1CC(=O)NCc1ccnc(OC2CCCC2)c1` | -6.495% |
| `Cc1cc(C(F)(F)F)nn1C(C)C(=O)Nc1ccncc1` (centres unmarked) | 6.633% |
| `O=C(NCc1ccc2c(c1)OCO2)[C@H]1C=CCN1c1ncccn1` | -4.416% |
| `CC(NC(=O)NCCCn1cncn1)c1ccccc1Cl` (centres unmarked) | 0.4223% |
| `CCNC(=O)NC(=O)CSC(C)c1ccccc1F` (centres unmarked) | 0.5329% |
| `Clc1ccc(C2(CNC3=NCCN3)CC2)cc1` | -4.874% |
| `CCC(=O)Nc1ccc(N2CCC(OC)CC2)c(C(F)(F)F)c1` | 0.722% |
| `O=C(c1cccn1Cc1cccs1)N1CCN(C2CC2)CC1` | 0.5596% |
| `NC(=O)c1ccc(NC(=O)Cn2cc(I)cn2)cc1` | -1.431% |
| `O=C1CCC(c2nc(C3CCN(C(=O)Cc4cccs4)CC3)no2)N1` (centres unmarked) | -3.897% |
| `NC(=O)CNC1(c2ccc(Cl)cc2)CCCC1` | -0.8136% |
| `CCOC(=O)N1CCN(Cc2ccc(OCc3nccn3C)cc2)CC1` | 1.519% |
| `NC(=O)NC(=O)C(c1ccccc1)N1CCN(Cc2ccsc2)CC1` (centres unmarked) | 1.577% |
| `N[C@H]1CN(CCCOc2ccccc2)C[C@@H]1C1CC1` | -3.119% |
| `Cc1cc(C)cc(NC(=O)Nc2c(O)oc3ccccc3c2=O)c1` | -1.528% |
| `COC(=O)c1oc(CNC(C)(C)CO)cc1C` | -1.125% |
| `Cc1ccc(S(=O)(=O)N2CCC3(CC(C(=O)NCC(C)C)=NO3)C2)cc1` (centres unmarked) | 4.185% |
| `c1cc(-c2ccc3nc(C4CCN(CC5CC5)CC4)nn3c2)ccn1` | -2.553% |
| `Cc1cnc(CC2COCCN(C(=O)c3cncs3)C2)cn1` (centres unmarked) | -2.344% |
| `N#Cc1ccsc1N1CCC(Sc2ccncc2)C1=O` (centres unmarked) | 4.699% |
| `c1cc2c(cc1Cn1cc(C3CCCNC3)nn1)CCCO2` (centres unmarked) | 3.62% |
| `Cc1nc(C)n(C2CCCN(C(=O)CCn3cncn3)C2)n1` (centres unmarked) | 2.647% |
| `CC(C)c1nc(C2CCCN2CCc2ccncc2)no1` (centres unmarked) | -0.8793% |
| `COc1ccc(C(C)NCc2nnc(C)s2)cc1F` (centres unmarked) | -0.07468% |
| `CCNc1nc(C)c(C(=O)N(C)Cc2nc(-c3ccncc3)no2)s1` | 0.1006% |
| `O=C1CO[C@H]2CN(S(=O)(=O)c3ccccc3)C[C@H]2N1Cc1ccccn1` | -0.5271% |

4 of the entries, repeated:

Result for C[C@@H]1CN(C(=O)CCN2CCCC2)CC[C@@]1(O)C1CCC1 was -3.526%.
Result for O=C(NCc1cccnc1)NCC(O)c1ccccc1C(F)(F)F (centres unmarked) was 1.358%.
Result for Cc1cnn(CCNCC(=O)N2CCN(c3ccccc3)CC2)c1 was 13.85%.
Result for Cc1nc(N2CCOc3ccc(CO)cc3C2)c2nc(C)oc2n1 was -0.2742%.